Assay results as given in patent publication US20120087968A1, “Antimicrobial Packaging Material and Methods of Making and Using the Same” (CRYOVAC, INC., priority 2010, published 2012).
Some entries share one result that the patent states for a list of compounds. At least one structure is not confirmed: it was looked up by name or label, or the drawing left a doubt.

Tested on: E. coli counts / microbial contamination in beef purge
Test: Beef purge study of LAE materials (aerobic plate count)
Type: cell-based
Settings: at the 24 and 48 hour time points
Method: About 30 mL of purge was isolated from two beef tenderloin packages and transferred to three test tubes (10 mL/tube). As set forth in Table 5 below, 0.5 g LAE HCl was added to the purge in sample 5 and 0.5 g LAE monolaurate was added to the purge in sample 6. Sample 7 was the positive control and contained no LAE derivative.
The samples were mixed using a vortex mixer and E. coli counts were determined by plating about 1.0 mL on aerobic plate count 3M Petrifilm™ plates for time 0 readings. The test tubes were then stored in a refrigerator (4° C.) and E. coli counts were determined by plating about 1.0 mL on aerobic plate count 3M Petrifilm™ at 24 and 48 hours. As set forth in Table 6, below, both LAE HCl and LAE Monolaurate eliminated over 99% of the microbial contamination at the 24 and 48 hour time points.

SMILES | microbial contamination eliminated
CCCCCCCCCCCC(=O)N[C@@H](CCCN=C(N)N)C(=O)OCC.Cl [LAE HCl, ethyl n-lauroyl-L-arginate hydrochloride salt] | over 99%
CCCCCCCCCCCC(=O)N[C@@H](CCCNC(=N)N)C(=O)OCC.CCCCCCCCCCCC(=O)O [LAE monolaurate, ethyl n-lauroyl-L-arginate laurate complex] | over 99%
